Measurements taken from PubChem BioAssay AID493014 (National Center for Advancing Translational Sciences (NCATS), 2011).
Screen size: about 340,000 compounds; about 170 (0.05%) were called active. Inconclusive results, whose numbers are uncertain, are shown with a selection of clear calls. The call rests on the fitted dose curve; in most records, active means well fitted inhibition curve with a large enough effect in the signal ratio, with a control signal flat (not every such curve was filed as active); inconclusive means small, poorly fitted or top-dose-only effect, or effect the other way, or a change in a side signal; inactive means flat fitted curve, though single readings scatter; the % refers to the signal ratio. Where the call is inconclusive, the potency comes from a doubtful curve fit.
Potency means the concentration at half of the fitted maximal effect.

Test: qHTS Assay to Find Inhibitors of Chronic Active B-Cell Receptor Signaling;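 on activity change, negative = inhibition: plate controls were basal doxycycline-induced cells for no effect and cells given 10 µM MG132 for full effect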
Conditions: ABC-DLBCL IkBa-CBG/CBR reporter, luminescence ratio (green luciferase fused to IkBa over red control in TMD8 lymphoma cells), 4 h; activity change, negative = inhibition: at 46.1 µM (top of the series)
Summary of the method: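 Concentration-response series (up to 46 uM) were applied to TMD8 dual-reporter cells for 4 h at 37C with doxycycline. Green/red ratio, after filter-overlap correction, defined %Activity; red signal alone was normalised to basal cells and zero luminescence.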
For `O=C(Nc1ccc(Cl)c(Cl)c1)Oc1ccc(NC(=O)c2ccco2)cc1`, the Potency was inconclusive: 14.6 µM [rising, partial curve, poor fit].
With `Cc1c(CCC(=O)NCCC(=O)O)c(=O)oc2cc3occ(-c4ccccc4)c3cc12` the activity change, negative = inhibition was inconclusive: 8.1%.
For `COc1ccc(-c2cc(C(=O)Nc3ccccc3SC)no2)cc1`, the Potency was inconclusive: 5.17 µM [falling, full curve].
With `O=C(Nc1ccccc1NC(=O)NC1CCCCC1)NC1CCCCC1` the activity change, negative = inhibition was inconclusive: 3.3%.
In the case of `O=C(/C=C/c1ccccc1)Oc1cccc2cccnc12`, the Potency is reported as inconclusive: 3.55 µM [cytotoxic, full curve].
With `Cc1ccc(S(=O)(=O)N(C)c2c(C)ccc(S(=O)(=O)Nc3ccncc3)c2C)cc1` the activity change, negative = inhibition was inconclusive: 3.07%.
In the case of `Nc1ncnc(Oc2cccc3cccnc23)c1[N+](=O)[O-]`, the Potency is reported as inconclusive: 35.5 µM [cytotoxic, single point].
For `COc1cc2cc(Oc3ccc4ccc(=O)oc4c3)c(=O)oc2cc1OC(=O)/C=C/c1ccccc1`, the activity change, negative = inhibition was inconclusive: 10.7%.
For `CCOc1ccccc1OCc1nn2c(COc3ccccc3)nnc2s1`, the activity change, negative = inhibition was inconclusive: 6.18%.
For `Nc1ccc2nc(CCCCCCCCc3nc4ccc(N)cc4[nH]3)[nH]c2c1`, the activity change, negative = inhibition was inconclusive: 5.66%.
With `Cc1ccc(-c2csc(NC(=O)c3ccc(-c4ccccc4)cc3)n2)o1` the activity change, negative = inhibition was inconclusive: 4.61%.
In the case of `CC(=O)Nc1nnc(COc2ccc(Cl)cc2)s1`, the Potency is reported as inconclusive: 14.1 µM [falling, single point].
In the case of `Cc1nc2c(Br)cc(Br)cc2cc1O`, the activity change, negative = inhibition is reported as inconclusive: 25.7%.
In the case of `Cc1cc(C)n(Cc2ccc(C(=O)NN)o2)n1`, the Potency is reported as inconclusive: 7.94 µM [falling, partial curve, poor fit].
In the case of `COCCn1c(C)c(C)c2c(NCCc3ccccc3)ncnc21`, the activity change, negative = inhibition is reported as “inactive”.
In the case of `COc1ccc(/C(N)=N/OC(=O)c2cccc([N+](=O)[O-])c2)cc1OC`, the activity change, negative = inhibition is reported as “inactive”.
For `O=C(NNc1nc2ccccc2s1)Nc1ccc(Cl)c(Cl)c1`, the Potency was inconclusive: 12.6 µM [rising, partial curve, poor fit].
For `FC(F)(F)c1ccccc1NC(=S)NN=C1CCCCCC1`, the Potency was inconclusive: 25.1 µM [cytotoxic, partial curve].
With `CC1CC(C)CN(C(=O)COC(=O)c2cc3ccccc3oc2=O)C1` (stereo unspecified) the activity change, negative = inhibition was inconclusive: 1.42%.
For `CC(C)(C)N(NC(=O)Nc1ccccc1)C(=O)c1ccccc1Cl`, the activity change, negative = inhibition was inconclusive: 6.42%.
In the case of `Cc1ccc(-c2csc3ncnc(OCC(=O)NC(=O)NCc4ccco4)c23)cc1`, the activity change, negative = inhibition is reported as inconclusive: -0.277%.
